In PubChem BioAssay AID1487 (National Center for Advancing Translational Sciences (NCATS), 2009):
The other results are listed elsewhere or left out. Further columns of the screen follow, without active or inactive calls. The list favours compounds with an active or inconclusive main result. Potencies come from curve fits of mixed quality, noted in brackets.

Test: qHTS Assay for Modulators of Lamin A Splicing
Settings: HeLa LMNA splicing GFP/RFP minigene ratio, 48 h
How it was run: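 Read-out is the ratio of GFP to DsRed2 object intensity, acquired by 488 nm laser-scanning cytometry on HeLa lamin A-EGFP minigene reporter cells. Compound incubation 48 hrs at 37 °C in Opti-MEM with 2% FBS; DMSO 0.5% final.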

[1] = measured here: RFP viability control channel
[2] = measured here: GFP splicing reporter channel

SMILES	AC50 [1]	AC50 [2]
Cc1nn(C)c(C(=O)Nc2cccc(CN3CCOCC3)c2)c1Br	7.94 µM [rising, partial curve]	–
Cc1ccc(NC(=O)COc2cccnc2[N+](=O)[O-])cc1S(=O)(=O)N1CCCCC1	17.8 µM [rising, partial curve]	15.8 µM [rising, single point]
Cc1ccc(C2CC(c3ccccc3)=NN2C(=O)CSc2nnc(-c3ccncc3)n2C)o1 (stereo not drawn)	–	20 µM [rising, single point]
O=C(Nc1ccc(Oc2cccnc2)cc1)c1cccc([N+](=O)[O-])c1	15.8 µM [rising, partial curve]	–
COc1ccc(C)cc1S(=O)(=O)N(C)CC(=O)N1CCC(C(N)=O)CC1	1.58 µM [falling, full curve]	–
Clc1ccccc1-c1nnc2sc(CCc3ccccc3)nn12	6.31 µM [rising, partial curve]	–
O=C(Cn1cnc2ccccc2c1=O)c1c[nH]c2ccccc12	35.5 µM [rising, single point]	35.5 µM [rising, single point]
OCCCNc1nc(-c2ccc(Br)cc2)nnc1-c1ccc(Cl)cc1	22.4 µM [rising, partial curve]	14.1 µM [rising, partial curve, poor fit]
Cc1ccc(C(=O)N2CCN(c3ncnc4c(C)csc34)CC2)cc1	–	7.94 µM [falling, partial curve]
Cc1ccc(Cn2nnc3c(=O)n(Cc4ccccc4C)cnc32)cc1	5.62 µM [rising, single point]	–
Cc1[nH]c(=S)sc1Cc1ccc(F)cc1	22.4 µM [rising, single point]	–
CCOC(=O)C1=C(C)Nc2nnnn2C1c1ccc(OC)c(Br)c1 (stereo not drawn)	7.94 µM [rising, partial curve, poor fit]	–
N[C@H](C(=O)N[C@@H]1C(=O)N2C(C(=O)O)=C(Cl)CS[C@@H]12)c1ccccc1	–	0.00398 µM [falling, full curve, poor fit]
COc1cccc(-c2ccc3ncnc(NCCc4c[nH]c5ccc(OC)cc45)c3c2)c1	17.8 µM [falling, partial curve]	15.8 µM [falling, partial curve]
CC(=O)NCCNc1ncnc2ccc(-c3ccccc3C)cc12	–	14.1 µM [falling, single point]
COc1ccc(-c2csc(NC(=S)NC(=O)/C=C/c3ccco3)n2)cc1OC	2.51 µM [rising, partial curve]	–
Fc1ccc(-n2c(-c3ccc4ccccc4n3)n[nH]c2=S)cc1	–	2.82 µM [falling, full curve, poor fit]
CCN(CC)S(=O)(=O)c1ccc(NCc2ccccc2)nc1	20 µM [rising, single point]	–
COc1ccccc1NC(C)C(=O)N/N=C/c1ccccc1OCc1cccc(Br)c1 (stereo not drawn)	25.1 µM [rising, single point]	–

SMILES	AC50 [1]	AC50 [2]
Cc1ccc(S(=O)(=O)N2CCCN(S(=O)(=O)c3ccc4c(c3)OCCO4)CC2)cc1	15.8 µM [rising, partial curve]	–
O=C(NCc1ccco1)c1ccc(S(=O)(=O)N2CCCc3ccccc32)cc1	15.8 µM [rising, single point]	–
Cc1ccc(OCCSCc2nnc(NC(=O)Nc3cccc(Cl)c3)s2)cc1	3.98 µM [rising, partial curve]	2.51 µM [rising, partial curve]
Cc1nnc(NC(=O)CSc2ccc(-c3ccc(Cl)cc3)nn2)s1	–	0.112 µM [rising, full curve, poor fit]
NS(=O)(=O)c1ccc(CCNC(=O)Nc2ccc(Cl)c(Cl)c2)cc1	12.6 µM [rising, partial curve]	12.6 µM [rising, partial curve]
O=C(C1CCC(Cn2c(=O)c3sccc3n(Cc3ccccc3F)c2=O)CC1)N1CCOCC1 (stereo not drawn)	0.00447 µM [falling, full curve, poor fit]	0.00316 µM [falling, full curve, poor fit]
O=[N+]([O-])c1cc(S(=O)(=O)NCCN2CCOCC2)ccc1Sc1nnnn1-c1ccccc1	3.16 µM [falling, partial curve, poor fit]	35.5 µM [falling, partial curve, poor fit]
CCN(CC)S(=O)(=O)c1cc([N+](=O)[O-])ccc1NNC(=O)Nc1ccc(Cl)c(Cl)c1	17.8 µM [rising, single point]	–
Cc1cccc(-n2c(N)cc(=O)nc2SC(C)C(=O)NC2CCCCC2)c1 (stereo not drawn)	12.6 µM [rising, single point]	–
CCOC(=O)c1c(-c2ccccc2)csc1NC(=O)c1cccc(N2C(=O)CCC2=O)c1	35.5 µM [falling, single point]	35.5 µM [falling, single point]
CO/N=C/c1ccc(Sc2ccccc2)c([N+](=O)[O-])c1	–	0.02 µM [rising, full curve, poor fit]
O=C(CSc1nc2c([nH]c3ccccc32)c(=O)n1-c1ccc(Cl)cc1)NC1CCCCC1	15.8 µM [falling, partial curve]	15.8 µM [falling, partial curve]
CCCCn1ccnc1C(=O)c1cccc(S(=O)(=O)N2c3ccccc3CC2C)c1 (stereo not drawn)	35.5 µM [rising, single point]	–
O=C(c1ccc(CNS(=O)(=O)c2ccccc2)cc1)N1CCN(Cc2ccccc2)CC1	11.2 µM [rising, partial curve]	–
COc1ccccc1NC(=O)c1c(C)cc(C)nc1SCC(=O)Nc1ccc(C)cc1	0.000794 µM [falling, full curve, poor fit]	35.5 µM [falling, partial curve, poor fit]
O=C(Nc1cccc(Cl)c1)Nn1cnnc1	10 µM [falling, partial curve]	12.6 µM [falling, partial curve]
COc1ccc(NC(C#N)c2ccccc2OCc2ccccc2)cc1 (stereo not drawn)	35.5 µM [rising, single point]	–
O=C(/C=C/c1cnc2ccccc2n1)NC12CC3CC(CC(C3)C1)C2	12.6 µM [rising, single point]	–
Cc1cccc(N(C)C(=O)c2cc3cc4ccc(C)cc4nc3o2)c1	6.31 µM [rising, full curve]	–

SMILES	AC50 [1]	AC50 [2]
COc1cccc(NC(=O)N2CCN(c3cccc(C)c3C)CC2)c1	12.6 µM [rising, single point]	–
O=C(CC(c1ccccc1)c1ccco1)Nc1nccs1 (stereo not drawn)	14.1 µM [rising, single point]	–
O=C(CN1CCN(c2ccccn2)CC1)N(c1ccccc1)c1ccc2ccccc2c1	14.1 µM [rising, partial curve]	–
COc1ccc(-c2n[nH]c(C)c2-c2cnn(-c3ccccc3)c2)c(O)c1C	0.316 µM [rising, partial curve, poor fit]	–
Oc1ccc(NCc2ccccc2OCc2ccccc2)cc1	35.5 µM [rising, single point]	14.1 µM [rising, partial curve, poor fit]
CC1CCN(S(=O)(=O)c2cc(C(=O)N3CCN(c4ncccn4)CC3)ccc2Br)CC1	12.6 µM [rising, partial curve]	11.2 µM [rising, partial curve]
CCOc1cc(C(=O)N/N=C/c2ccsc2)cc(OCC)c1OCC	31.6 µM [rising, single point]	–
COCCN(CC(=O)Nc1ccc(F)cc1)S(=O)(=O)c1ccc(S(=O)(=O)N2CCCC2)cc1	5.62 µM [falling, single point]	–
CCOc1ccc(CNC(=O)c2cc3cc(S(=O)(=O)N4CCCCC4)ccc3n2C)cc1	–	0.794 µM [rising, full curve, poor fit]
Cc1ccc(Nc2cc(C)nc(NCc3ccccc3)n2)cc1	11.2 µM [rising, partial curve]	7.08 µM [rising, partial curve]
CS(=O)(=O)NCCSCc1c(F)cccc1Cl	22.4 µM [rising, single point]	–
Cc1nn(-c2ccccc2)c2sc(C(=O)c3c(N)n(C)c(=O)n(C)c3=O)cc12	20 µM [rising, single point]	0.708 µM [rising, full curve, poor fit]
COc1ccc(C(=O)N2c3ccccc3C=CC2C#N)cc1 (stereo not drawn)	5.62 µM [rising, partial curve, poor fit]	–
Cc1cnc(NC(=O)CSc2ncc(-c3ccccc3)n2Cc2ccco2)s1	35.5 µM [rising, single point]	–
CCN1CCc2c(OCC(=O)N3N=C(c4cccs4)CC3c3ccc(F)cc3)cccc2C1=O (stereo not drawn)	2.82 µM [rising, partial curve, poor fit]	–
COc1ccc(-c2cc(C3CCN(c4cc(Cl)nc(N)n4)CC3)[nH]n2)cc1	11.2 µM [falling, partial curve]	–
O=C(c1ccco1)c1coc2c1cc(O)c1ccccc12	–	8.91 µM [falling, partial curve, poor fit]
CCOC(=O)c1c(C)[nH]c(C)c1S(=O)(=O)N1CCCC(C(=O)N2CCN(c3cccc(Cl)c3)CC2)C1 (stereo not drawn)	0.501 µM [falling, full curve]	0.562 µM [falling, full curve]

15 of these compounds, reformatted:
SMILES,AC50 [1],AC50 [2]
Cc1ccc(NC(=O)COc2cccnc2[N+](=O)[O-])cc1S(=O)(=O)N1CCCCC1,"17.8 µM [rising, partial curve]","15.8 µM [rising, single point]"
Cc1ccc(C2CC(c3ccccc3)=NN2C(=O)CSc2nnc(-c3ccncc3)n2C)o1 (stereo not drawn),–,"20 µM [rising, single point]"
O=C(Nc1ccc(Oc2cccnc2)cc1)c1cccc([N+](=O)[O-])c1,"15.8 µM [rising, partial curve]",–
COc1ccc(C)cc1S(=O)(=O)N(C)CC(=O)N1CCC(C(N)=O)CC1,"1.58 µM [falling, full curve]",–
Clc1ccccc1-c1nnc2sc(CCc3ccccc3)nn12,"6.31 µM [rising, partial curve]",–
O=C(Cn1cnc2ccccc2c1=O)c1c[nH]c2ccccc12,"35.5 µM [rising, single point]","35.5 µM [rising, single point]"
OCCCNc1nc(-c2ccc(Br)cc2)nnc1-c1ccc(Cl)cc1,"22.4 µM [rising, partial curve]","14.1 µM [rising, partial curve, poor fit]"
Cc1ccc(C(=O)N2CCN(c3ncnc4c(C)csc34)CC2)cc1,–,"7.94 µM [falling, partial curve]"
Cc1ccc(Cn2nnc3c(=O)n(Cc4ccccc4C)cnc32)cc1,"5.62 µM [rising, single point]",–
Cc1[nH]c(=S)sc1Cc1ccc(F)cc1,"22.4 µM [rising, single point]",–
CCOC(=O)C1=C(C)Nc2nnnn2C1c1ccc(OC)c(Br)c1 (stereo not drawn),"7.94 µM [rising, partial curve, poor fit]",–
N[C@H](C(=O)N[C@@H]1C(=O)N2C(C(=O)O)=C(Cl)CS[C@@H]12)c1ccccc1,–,"0.00398 µM [falling, full curve, poor fit]"
COc1cccc(-c2ccc3ncnc(NCCc4c[nH]c5ccc(OC)cc45)c3c2)c1,"17.8 µM [falling, partial curve]","15.8 µM [falling, partial curve]"
CC(=O)NCCNc1ncnc2ccc(-c3ccccc3C)cc12,–,"14.1 µM [falling, single point]"
COc1ccc(-c2csc(NC(=S)NC(=O)/C=C/c3ccco3)n2)cc1OC,"2.51 µM [rising, partial curve]",–
